The record followed here is paper PMC11186355.

Results are given in words; binding and its absence hold for the method and conditions named. A result given as binding can be weak or reduced; the word gives no strength. Where a sequence is shown, tags or fusion partners need not be part of it.

In the assay the target is Nlp-CC2 domain, GST-tag purified protein. The experiment in a line: pull-down; GST-tag purified proteins of Nlp truncates with SEC31A or Rab1B purified protein freed of GST by Thrombin; both purified.

B1: SEC31A purified protein (GST removed by Thrombin) (protein, UniProt O94979 1-1220)
chain: MKLKEVDRTAMQAWSPAQNHPIYLATGTSAQQLDATFSTNASLEIFELDLSDPSLDMKSCATFSSSHRYHKLIWGPYKMDSKGDVSGVLIAGGENGNIILYDPSKIIAGDKEVVIAQNDKHTGPVRALDVNIFQTNLVASGANESEIYIWDLNNFATPMTPGAKTQPPEDISCIAWNRQVQHILASASPSGRATVWDLRKNEPIIKVSDHSNRMHCSGLAWHPDVATQMVLASEDDRLPVIQMWDLRFASSPLRVLENHARGILAIAWSMADPELLLSCGKDAKILCSNPNTGEVLYELPTNTQWCFDIQWCPRNPAVLSAASFDGRISVYSIMGGSTDGLRQKQVDKLSSSFGNLDPFGTGQPLPPLQIPQQTAQHSIVLPLKKPPKWIRRPVGASFSFGGKLVTFENVRMPSHQGAEQQQQQHHVFISQVVTEKEFLSRSDQLQQAVQSQGFINYCQKKIDASQTEFEKNVWSFLKVNFEDDSRGKYLELLGYRKEDLGKKIALALNKVDGANVALKDSDQVAQSDGEESPAAEEQLLGEHIKEEKEESEFLPSSGGTFNISVSGDIDGLITQALLTGNFESAVDLCLHDNRMADAIILAIAGGQELLARTQKKYFAKSQSKITRLITAVVMKNWKEIVESCDLKNWREALAAVLTYAKPDEFSALCDLLGTRLENEGDSLLQTQACLCYICAGNVEKLVACWTKAQDGSHPLSLQDLIEKVVILRKAVQLTQAMDTSTVGVLLAAKMSQYANLLAAQGSIAAALAFLPDNTNQPNIMQLRDRLCRAQGEPVAGHESPKIPYEKQQLPKGRPGPVAGHHQMPRVQTQQYYPHGENPPPPGFIMHGNVNPNAAGQLPTSPGHMHTQVPPYPQPQPYQPAQPYPFGTGGSAMYRPQQPVAPPTSNAYPNTPYISSASSYTGQSQLYAAQHQASSPTSSPATSFPPPPSSGASFQHGGPGAPPSSSAYALPPGTTGTLPAASELPASQRTGPQNGWNDPPALNRVPKKKKMPENFMPPVPITSPIMNPLGDPQSQMLQQQPSAPVPLSSQSSFPQPHLPGGQPFHGVQQPLGQTGMPPSFSKPNIEGAPGAPIGNTFQHVQSLPTKKITKKPIPDEHLILKTTFEDLIQRCLSSATDPQTKRKLDDASKRLEFLYDKLREQTLSPTITSGLHNIARSIETRNYSEGLTMHTHIVSTSNFSETSAFMPVLKVVLTQANKLGV
Consider B1, for which the binding entry is given as “binds”.
